Experimental data as given in doi:10.1101/2022.06.19.496704.
These are yes or no findings as the source states them, for the method shown. In cells and extracts the contact can be indirect. Some entries that bind do so weakly or less than the wild type.

Amino acid sequences for entries named in this document (tags omitted).
UniProt Q14203: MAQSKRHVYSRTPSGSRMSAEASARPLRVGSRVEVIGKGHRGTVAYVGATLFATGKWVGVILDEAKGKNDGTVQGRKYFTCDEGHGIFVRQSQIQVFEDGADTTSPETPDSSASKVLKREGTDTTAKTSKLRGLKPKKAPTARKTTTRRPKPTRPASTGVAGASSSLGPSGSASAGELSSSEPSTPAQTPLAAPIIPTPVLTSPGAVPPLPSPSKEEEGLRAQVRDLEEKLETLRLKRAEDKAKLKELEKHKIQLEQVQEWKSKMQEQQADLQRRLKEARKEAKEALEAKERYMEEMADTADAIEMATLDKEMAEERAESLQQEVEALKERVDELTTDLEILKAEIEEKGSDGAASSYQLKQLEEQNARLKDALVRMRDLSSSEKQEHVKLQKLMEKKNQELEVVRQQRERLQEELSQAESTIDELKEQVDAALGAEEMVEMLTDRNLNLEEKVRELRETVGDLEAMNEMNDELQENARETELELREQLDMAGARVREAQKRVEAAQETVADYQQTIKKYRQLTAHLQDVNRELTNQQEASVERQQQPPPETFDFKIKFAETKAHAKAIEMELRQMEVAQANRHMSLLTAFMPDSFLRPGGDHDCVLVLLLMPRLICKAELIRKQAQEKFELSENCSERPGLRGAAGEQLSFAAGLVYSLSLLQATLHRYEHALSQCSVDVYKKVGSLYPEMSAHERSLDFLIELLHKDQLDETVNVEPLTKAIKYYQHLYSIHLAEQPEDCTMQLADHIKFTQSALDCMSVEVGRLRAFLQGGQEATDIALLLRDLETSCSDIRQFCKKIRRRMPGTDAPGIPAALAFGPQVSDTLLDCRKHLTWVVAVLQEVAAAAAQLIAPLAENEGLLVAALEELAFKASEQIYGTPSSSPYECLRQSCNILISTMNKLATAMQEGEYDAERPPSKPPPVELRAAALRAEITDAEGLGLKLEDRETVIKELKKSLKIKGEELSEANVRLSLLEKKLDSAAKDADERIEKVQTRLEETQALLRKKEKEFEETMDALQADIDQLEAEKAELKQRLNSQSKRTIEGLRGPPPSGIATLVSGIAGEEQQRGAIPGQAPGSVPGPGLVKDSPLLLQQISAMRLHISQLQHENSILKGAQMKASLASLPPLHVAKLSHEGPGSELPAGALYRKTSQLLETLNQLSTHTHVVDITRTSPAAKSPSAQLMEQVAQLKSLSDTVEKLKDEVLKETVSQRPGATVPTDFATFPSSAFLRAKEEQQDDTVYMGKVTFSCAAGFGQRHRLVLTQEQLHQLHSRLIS
UniProt P28023: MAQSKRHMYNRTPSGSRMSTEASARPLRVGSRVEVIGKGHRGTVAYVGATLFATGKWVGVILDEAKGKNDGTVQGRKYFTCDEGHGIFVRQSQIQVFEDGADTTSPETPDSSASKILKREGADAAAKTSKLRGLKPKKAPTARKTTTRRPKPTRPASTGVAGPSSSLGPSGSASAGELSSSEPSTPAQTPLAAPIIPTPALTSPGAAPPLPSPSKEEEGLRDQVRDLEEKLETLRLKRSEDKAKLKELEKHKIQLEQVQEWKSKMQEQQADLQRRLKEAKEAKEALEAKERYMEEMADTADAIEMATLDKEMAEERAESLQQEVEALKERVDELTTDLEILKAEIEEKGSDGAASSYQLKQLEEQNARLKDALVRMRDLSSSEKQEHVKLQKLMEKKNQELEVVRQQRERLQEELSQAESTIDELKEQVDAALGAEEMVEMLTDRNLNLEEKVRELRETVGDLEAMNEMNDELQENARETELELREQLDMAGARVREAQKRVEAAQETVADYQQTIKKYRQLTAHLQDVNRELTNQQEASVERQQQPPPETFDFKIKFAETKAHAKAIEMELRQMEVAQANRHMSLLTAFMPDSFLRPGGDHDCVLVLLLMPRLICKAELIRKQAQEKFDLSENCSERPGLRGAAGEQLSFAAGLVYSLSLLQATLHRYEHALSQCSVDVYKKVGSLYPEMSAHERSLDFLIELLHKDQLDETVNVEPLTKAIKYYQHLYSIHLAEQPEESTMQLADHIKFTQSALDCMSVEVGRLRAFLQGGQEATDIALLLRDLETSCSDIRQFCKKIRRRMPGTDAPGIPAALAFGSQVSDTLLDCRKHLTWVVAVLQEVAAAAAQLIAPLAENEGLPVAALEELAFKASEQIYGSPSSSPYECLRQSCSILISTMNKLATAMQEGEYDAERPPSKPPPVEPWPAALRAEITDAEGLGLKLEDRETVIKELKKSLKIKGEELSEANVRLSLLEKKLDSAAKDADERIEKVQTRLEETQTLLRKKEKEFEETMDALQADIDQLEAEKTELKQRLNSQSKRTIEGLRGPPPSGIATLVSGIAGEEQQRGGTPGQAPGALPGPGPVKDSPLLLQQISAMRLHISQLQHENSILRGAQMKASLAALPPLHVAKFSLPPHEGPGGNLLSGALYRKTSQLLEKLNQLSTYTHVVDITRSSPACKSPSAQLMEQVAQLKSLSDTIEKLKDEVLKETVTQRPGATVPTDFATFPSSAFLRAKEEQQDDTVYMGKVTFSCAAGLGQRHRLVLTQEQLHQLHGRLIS
UniProt Q9UJW0: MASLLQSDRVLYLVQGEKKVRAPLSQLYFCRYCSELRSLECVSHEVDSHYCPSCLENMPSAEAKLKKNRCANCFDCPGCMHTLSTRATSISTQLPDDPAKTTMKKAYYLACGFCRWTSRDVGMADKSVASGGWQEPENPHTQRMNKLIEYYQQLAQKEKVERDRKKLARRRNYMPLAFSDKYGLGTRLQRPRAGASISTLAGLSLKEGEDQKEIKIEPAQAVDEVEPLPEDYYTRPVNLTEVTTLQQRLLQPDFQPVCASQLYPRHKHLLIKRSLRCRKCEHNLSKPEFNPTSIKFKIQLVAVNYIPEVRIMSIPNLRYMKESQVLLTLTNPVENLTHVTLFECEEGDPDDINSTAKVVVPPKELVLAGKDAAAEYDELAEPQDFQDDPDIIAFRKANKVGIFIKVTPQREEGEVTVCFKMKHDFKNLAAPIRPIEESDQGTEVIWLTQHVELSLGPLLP

Key:
[1] = biological target: p150^Glued (endogenous, HEK293T) (human (endogenous in HEK293T)) (UniProt Q14203); test: co-IP
[2] = biological target: AviGFP-tagged p150^Glued (full length) (UniProt P28023); test: pull-down

Substance: p62 (dynactin Arp1-rod protein, endogenous, HEK293T) (from UniProt Q9UJW0 1-460)
- binding [1]: binds
- binding [2]: binds
